# Test system: Pentagastrin-Induced Gastric Acid Secretion
# Test: Continuous pentagastrin infusion model: gastric acid output after single i.v. dose
# Assay type: in vivo, human
# Conditions: 20 mg dose group
# Description: After 60 min of pentagastrin infusion, subjects received a single dose of i.v. pantoprazole (20, 40, 80, or 120 mg), i.v. famotidine (20 mg), or saline placebo. […] The study protocol was approved by the UCLA Institutional Review Board and conducted according to the provisions of the Declaration of Helsinki and its amendments. Written informed consent was obtained from each participant before enrollment, and the identity of each patient was kept confidential. Each subject underwent a prestudy screening that included a physical examination, electrocardiogram (ECG), laboratory blood and urine analysis, and a pregnancy test for women. […] Subjects were excluded from the study if abnormalities in these parameters were detected. Maximum AO (MAO) were also determined during the screening period. MAO was estimated by the subcutaneous injection of PG (6 μg/kg), after which four 15-min samples were collected and analyzed (Table 1). […] The variables measured were onset of response (time until AO decreased to <10 mEq/h and remained below this level for 1 h), duration of response (time from onset until time when AO levels rose to >10 mEq/h and remained so for 1 h), and cumulative AO 15 over 24 h. […] Vital signs and electrolytes were monitored during this time. […]
smiles,measurement,setting,value
"NC(N)=Nc1nc(CSCCC(N)=NS(N)(=O)=O)cs1 [Famotidine, famotidine]","Acid Output, Treatment Period −1-0 h","hour before study drug, PG infusion 1 μg/kg/h",29.1 ± 15.4 mEq/h
same,"Acid Output, Screening Period (MAO)","screening, before study drug, after subcutaneous PG 6 μg/kg",28.1 ± 7.0 mEq/h

# Reference: patent US7807623B2, “Use of pentagastrin to inhibit gastric acid secretion or as a diuretic” (The Regents of the University of California, priority 1999, dated 2010)
